Test results published in PubChem BioAssay AID1347076 (National Center for Advancing Translational Sciences (NCATS), 2019).
Out of some 400,000 compounds screened, about 13,000 (3.2%) were called active. The inconclusive results got no clear call from the source; some entries with a clear call stand among them for comparison. Calls come from the whole dose curve; as a rule, active = well fitted cell-killing curve with a large enough effect; inconclusive = small, poorly fitted or top-dose-only effect, or effect the other way; inactive = flat fitted curve, though single readings scatter. Potencies of inconclusive entries are doubtful fits and often do not repeat.

Experiment: qHTS assay for MDR1-selective chemotherapeutics: Primary screen using the drug-selected MDR subline cells KB-V1; note: nearly all actives have a fitted effect of over 60% in size
Settings: KB-V1 MDR cells viability, CellTiter-Glo, 72 h; series mostly up to 46.1 µM
Method in brief: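 Potencies derive from concentration-effect curves fitted to normalized luminescence (CellTiter-Glo) of KB-V1 cells treated for 72 h at 37 degrees C in phenol-red-free DMEM containing 10% FBS.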
Potency is the fitted concentration of half-maximal effect.

SMILES	Potency
Cc1cnc(NC(=O)CC2CCCC2)s1	inconclusive: 23.1 µM [rising, partial curve, poor fit]
Cn1c(-c2c(N)n(C3CCCC3)c3nc4ccccc4nc23)nc2ccccc21	active: 20.6 µM
CN(C)S(=O)(=O)Oc1ccsc1C(=O)Nc1cccc(Cl)c1	active: 20.6 µM
Nn1c(Cc2cccc3ccccc23)n[nH]c1=S	inactive
COc1cc(OC)c(C(=O)OCC(=O)NC2CCCCCCC2)cc1OC	active: 8.2 µM
O=C(CN1CCN(c2ccc(F)cc2)CC1)N(C1CCCC1)C1CCS(=O)(=O)C1 (configuration not stated)	inactive
COc1cccc(NC(=O)CN(C)C(=O)c2ccc(-c3ccccc3Cl)o2)c1	inconclusive: 29.1 µM [cytotoxic, single point]
Nc1nc(NCCc2ccccc2)c2[nH]cnc2n1	inactive
Cc1cccc(Cn2cnc3c(oc4ccccc43)c2=O)c1	inconclusive: 29.1 µM [cytotoxic, single point]
O=C(Nc1ccccc1)OCCc1ccccc1	inactive
COc1ccc2c(c1)C(=NNc1ccc(C(=O)O)cc1)c1cc(OC)ccc1-2	inactive
CCN(CC)CCCNc1nc(-n2nc(C)cc2C)nc2sc3c(c12)CC(C)(C)OC3	inactive
COc1ccc2c(c1)c(=O)oc1cc(OCC(=O)N3CCC(C)CC3)ccc12	inconclusive: 9.2 µM [cytotoxic, partial curve, poor fit]
COc1cccc(NC(=O)Nc2cc(Cl)ccc2C)c1	inconclusive: 29.1 µM [cytotoxic, partial curve, poor fit]
COc1cc(/C=C(\NC(=O)c2ccccc2)C(=O)N2CC3CC(C2)c2cccc(=O)n2C3)cc(OC)c1OC (configuration not stated)	inactive
CCN1CCN(C(c2ccccc2F)c2c(O)cc(C)n(CCOC)c2=O)CC1 (configuration not stated)	inactive
c1ccc(CCNc2nc(-c3ccncc3)cs2)cc1	inconclusive: 8.2 µM [cytotoxic, partial curve]
Cc1ccc(NC(=O)c2cc(NC(=O)/C=C\C(=O)O)ccc2N2CCCCC2)cc1	inconclusive: 29.1 µM [rising, single point]
N#Cc1ccc(NC2=NS(=O)(=O)c3ccccc32)cc1	inconclusive: 10.3 µM [rising, partial curve, poor fit]
N#Cc1c(N)n(-c2ccc(O)cc2)c2nc3ccccc3nc12	inactive
COc1ccc(-c2c(C)nn3c(N4CCN(c5ccccc5F)CC4)cc(C)nc23)cc1OC	inactive
Cc1ccc(NS(=O)(=O)c2ccc3[nH]c4c(c3c2)CCCCCC4)cc1	inactive
CCCn1c(=O)c(C(=O)Nc2ccccc2C(=O)OC)c(O)c2ccccc21	inconclusive: 5.8 µM [cytotoxic, full curve, poor fit]
C=CCN(c1ccccc1OC)S(=O)(=O)c1cccc(C(=O)NCc2cccs2)c1	inconclusive: 29.1 µM [cytotoxic, single point]

Compounds listed so far that contain four or more nitrogen atoms (six):
SMILES	Potency
Cn1c(-c2c(N)n(C3CCCC3)c3nc4ccccc4nc23)nc2ccccc21	active: 20.6 µM
Nn1c(Cc2cccc3ccccc23)n[nH]c1=S	inactive
Nc1nc(NCCc2ccccc2)c2[nH]cnc2n1	inactive
CCN(CC)CCCNc1nc(-n2nc(C)cc2C)nc2sc3c(c12)CC(C)(C)OC3	inactive
N#Cc1c(N)n(-c2ccc(O)cc2)c2nc3ccccc3nc12	inactive
COc1ccc(-c2c(C)nn3c(N4CCN(c5ccccc5F)CC4)cc(C)nc23)cc1OC	inactive

Continuation.

SMILES	Potency
COCCN(C(=O)c1ccc(N2C(=O)c3ccccc3C2=O)cc1)c1c(N)n(CC(C)C)c(=O)[nH]c1=O	inconclusive: 23.1 µM [cytotoxic, single point]
O=S(=O)(c1ccc(Cl)cc1)N1CCN(c2nc(-c3ccccc3)nc3ccccc23)CC1	inactive
CN(Cc1ccccc1)S(=O)(=O)c1cccc(C(=O)O)c1	inactive
Cc1c(S(=O)(=O)N2CCN(c3ccccc3)CC2)c(=O)n(C)c(=O)n1C	inactive
OC1c2cc(Br)ccc2N=C2CCCN21 (configuration not stated)	inconclusive: 29.1 µM [cytotoxic, single point]
Cc1ccc(C(=O)Nc2cccc3cccnc23)cc1C	inconclusive: 11.6 µM [cytotoxic, partial curve]
Cc1ccc(C)c(N2C(=O)N(C)c3ccccc3S2(=O)=O)c1	inactive
CN1CCN(C(c2ccccc2)c2ccc(Cl)cc2)CC1 (configuration not stated)	inconclusive: 29.1 µM [cytotoxic, single point]
CN(C)c1ccc(CNC(=O)CCNS(=O)(=O)c2cc(Br)cnc2N)cc1	inconclusive: 23.1 µM [rising, single point]
CCc1cccc(C)c1NC(=S)N(CCCN1CCN(C)CC1)Cc1cccs1	inconclusive: 8.2 µM [cytotoxic, partial curve]
COc1ccc(/C=C2\CCc3ccccc3C2=O)cc1OC	active: 16.4 µM
Cc1c(C(=O)N(Cc2cccc(F)c2)C2CCS(=O)(=O)C2)oc2cc(Br)ccc12 (configuration not stated)	inactive
O=C(c1ccc(-c2ccc(Cl)cc2)o1)N1CCN(S(=O)(=O)c2cccs2)CC1	inconclusive: 18.4 µM [cytotoxic, single point]
CCc1ccccc1NC(=O)CC(c1ccc(OC)cc1)n1cccc1 (configuration not stated)	active: 7.31 µM
CCC(CC)C(=O)Nc1c2cnn(-c3ccccc3)c2nc(=O)n1-c1ccccc1	inconclusive: 14.6 µM [cytotoxic, single point]
CC1CC1C(=O)Nc1nc2ccc(S(C)(=O)=O)cc2s1 (configuration not stated)	inconclusive: 32.6 µM [cytotoxic, single point]
Cc1cccn2c(=O)c3cc(C(=O)NC4CCCC4)c(=N)n(CCc4ccccc4)c3nc12	inconclusive: 20.6 µM [cytotoxic, single point]
CC(C)(C)CN1CCNC(=O)C1CC(=O)NCCN1CCCc2ccccc21 (configuration not stated)	inactive
O=C1NC[C@@H](CCCCN2C[C@H](Cc3ccccc3)N(CC3CCCCC3)C(=O)C2=O)N(Cc2ccccc2)C1=O	inconclusive: 29.1 µM [rising, single point]
O=C(CN1CCC(NC(=O)c2cccc(F)c2)CC1)Nc1ccc(Br)cc1	inconclusive: 13 µM [cytotoxic, partial curve]
Cc1cccc(N2CCN(C(=O)CCNS(=O)(=O)c3ccc4c(c3)oc(=O)n4C)CC2)c1C	inconclusive: 6.51 µM [cytotoxic, full curve, poor fit]
Cc1cccn2c(=O)c3cc(C(=O)NCc4ccco4)c(=N)n(CCc4ccccc4)c3nc12	inconclusive: 13 µM [cytotoxic, single point]
COC(=O)CSc1ccc(S(=O)(=O)N2CCCCCC2)cc1[N+](=O)[O-]	inconclusive: 16.4 µM [rising, single point]

Three entries from above, ordered by SMILES length, smallest number first.
SMILES	Potency
Cc1ccc(C(=O)Nc2cccc3cccnc23)cc1C	inconclusive: 11.6 µM [cytotoxic, partial curve]
CCc1cccc(C)c1NC(=S)N(CCCN1CCN(C)CC1)Cc1cccs1	inconclusive: 8.2 µM [cytotoxic, partial curve]
CN(C)c1ccc(CNC(=O)CCNS(=O)(=O)c2cc(Br)cnc2N)cc1	inconclusive: 23.1 µM [rising, single point]
